Data as given in publication PMC10163288.
The other results are listed elsewhere or left out.

B1: il2ra_site1_2b5i_sap_16_mot_HHH_b2_01162_000000236_0001_22_38_H_._4004acc1088fa2ad3b456bbf002898ca_0001_af2_0001_0000400007_0000001_0_0001_af2pred_dldesign_0_af … (protein)
chain: SSSSSPEVEALLAEARAALAAGRLDEARRLLLEAAELAEEEDDRELLKEIIKELRRVELASSSSS
B2: il2ra_site1_3nfp_sap_7_mot_HHH_b2_02159_000000237_0001_1_17_H_._HHH_b1_04540_0001_0000700039_0000001_0_0001_af2pred_0001_af2pred (protein)
chain: PSRLVEEIIKLIRKGDPEAEELAKELEELAEELNDPRLEKVAELLLEAVKKGDKELLEKALQAAA
B3: il2ra_site1_3nfp_normal_mot_HHH_b2_05589_af2_000000060_0001_42_57_H_._HHH_b1_05883_0001_0000100002_0000001_0 (protein)
chain: SSSSSNQEIARLIDEAWRLKAEGNPEEAERVLEEALELARELGDELAERFIEELLRLIERSSSSS
B4: il2ra_site2_3nfp_sap_18_mot_HHH_b1_04960_000000149_0001_23_39_H_._HHH_b2_05326_0001_0000500024_0000001_0_0001 (protein)
chain: SSSSSSEEEIERLLEKLEELVRNNDEEEAEELSARISELIFELGNFELFAELLELSVALFSSSSS
B5: il2ra_site1_2b5i_normal_mot_HHH_b2_04910_000000118_0001_1_19_H_._HHH_b2_05364_af2_0001_0000500048_0000001_0_af2pred_dldesign_0_af2pred (protein)
chain: SSSSSPLTKKALELFLEANKLKQAGKEEEAKEKLEEALRLAKEAGSNSLVRILELALEQLESSSS
B6: il2ra_site1_3nfp_sap_15_mot_HHH_b1_07644_af2_000000110_0001_40_57_H_._HHH_b1_02888_0001_0000100006_0000001_0_0001 (protein)
chain: SSSDREELQRLAQEALELAFNGNPEEAQRVLEEALELAERLNDERAFRFIERLLRQIERFFSSSS
B7: il2ra_site2_3nfp_normal_mot_HHH_b1_04264_000000089_0001_1_18_H_._332cd829babfe32ea4315b179459513b_0001_1_0001_0000100003_0000001_0 (protein)
chain: SQEVFEVIHKLREEGDPELAISLFALLAELLLHPENEELREKLEELLEIIKKNPEEAREVARKLP
B8: il2ra_site2_3nfp_normal_mot_HHH_b1_06997_af2_000000208_0001_19_35_H_._HHH_b2_00218_0001_0000300039_0000001_0 (protein)
chain: SSSSSEREEYLEAAVALLEEALKEGDEEFARKLLELVKKLAEDAGDEEILERLEEIEEELSSSSS
B9: il2ra_site2_3nfp_normal_mot_HHH_b2_08245_000000023_0001_41_55_H_._HHH_b2_04266_af2_0001_0000100001_0000001_0 (protein)
chain: SSSSSDEEERRIEELIEEAREIEDPEEARKILAEATHLAYEARNSELFFAIAEVLFKLLSSSSSS
B10: il2ra_site1_1z92_normal_mot_b1fbee8209167eaadba3689d49187f1a_0001_1_af2_000000019_0001_16_31_H_._HHH_b2_06162_0001_0000500028_0000001_0_af2pred_0001_af2pred_1 (protein)
chain: SSSSDLEEEAEEIVREVVEKLGLDEQDKELLERDAEFSLRNGVSEKSVKLALELAAKAMHSSSSS
B11: il2ra_site2_2erj_sap_18_mot_HHH_b1_05537_000000062_0001_1_19_H_._HHH_b2_03360_0001_0000300015_0000001_0_0001 (protein)
chain: SSSSDEEEEEIRRLIEEARELLENGNPEEAYNVLARAALLALELGDEELFREISELFEKVYSSSS
B12: il2ra_site1_1z92_sap_18_mot_HHH_b1_01765_000000215_0001_19_35_H_._HHH_b1_01738_0001_0000300026_0000001_0_0001 (protein)
chain: SSSSDEQVERSLKRAVEIAVRMAGLSEEQKEELEKLAEELAERGVDFLEALRIVDELAVKLSSSS
B13: il2ra_site1_3nfp_sap_14_mot_HHH_b2_01814_000000033_0001_1_16_H_._HHH_b1_02934_af2_0001_0000300016_0000001_0_0001 (protein)
chain: SSSSSEEEEEVERLLEEAEEAIEEGDLEKALRLLQEAFRIAREAKDPELADLVYEVMRRIISSSS
B14: il2ra_site2_3nfp_normal_mot_HHH_b1_00660_af2_000000090_0001_40_57_H_._HHH_b2_00740_0001_0000100002_0000001_0_af2pred_0001_af2pred_1 (protein)
chain: SSSSDEELEREVERLLEEARHVDEEEAKKLLAEAAQLAYENNNFELFALVHEVLEELERRSSSSS
B15: il2ra_site1_3nfp_sap_26_mot_HHH_b1_06663_af2_000000234_0001_1_16_H_._HHH_b1_08000_af2_0001_0000100002_0000001_0_0001 (protein)
chain: SSSSSEIEEEVRELLEEIRRLLEEGDWEEALRLAEEVMRVAARGNDREAEKLIMEWNKRDSSSSS
B16: il2ra_site1_1z92_normal_mot_HHH_b2_05027_000000150_0001_42_56_H_._HHH_b2_03014_0001_0000400026_0000001_0 (protein)
chain: SSSSSSSEEWLEELVELVIKRSDDPEEQEELRRLLEELREEGDPELWLELAQLLIEIASSSSSSS
B17: il2ra_site1_2b5i_normal_mot_HHH_b1_02271_000000068_0001_1_16_H_._HHH_b1_00609_af2_0001_0000500024_0000001_0_af2pred_dldesign_0_af2pred (protein)
chain: SSSSAAKRARVEALKEEAKKLKDKREQLKALNEAYKLAGELGDEELEEELERLAREISLSSSSSS
B18: il2ra_site2_3nfp_sap_22_mot_HHH_b1_04960_000000149_0001_23_39_H_._HHH_b1_02593_af2_0001_0000200007_0000001_0_0001 (protein)
chain: SSSSNIEEAAEHLLKELRELGDEESVEELEHLLERLREEGDPKLEFELFALIAEIQNELLSSSSS
B19: il2ra_site1_2b5i_sap_7_mot_HHH_b1_06258_af2_000000112_0001_42_56_H_._HHH_b1_01955_af2_0001_0000100008_0000001_0_0001_af2pred_dldesign_0_af2pred (protein)
chain: SREELLAFIEKYAPPAAQKQARRLLDFGLSQGLPFEDILRALADYLARLTKDPSIREKCDAFLAK
B20: il2ra_site2_3nfp_normal_mot_HHH_b1_00660_af2_000000090_0001_40_57_H_._HHH_b1_05706_0001_0000200024_0000001_0 (protein)
chain: SSSSDEEKRELLEELRKIVENNDEEEFRRVVAEIAHLAYELNDFELFAALQELRELFARLSSSSS
B21: il2ra_site2_2erj_normal_mot_HHH_b2_01204_af2_000000056_0001_19_34_H_._HHH_b2_05536_af2_0001_0000300014_0000001_0 (protein)
chain: SSSSSEELEELYELAVKLLHLADEGDEEEFEKLAEELERLAEELQSDTVKEVVEYLQKLISSSSS
B22: il2ra_site1_3nfp_normal_mot_5dc7e7b25dc54f054fa2249576f850d6_0001_af2_000000143_0001_1_31_H_._fa9f4d8de626c23e570ee6a1132b7884_0001_af2_0001_0000300016_0000001_ … (protein)
chain: DIRELLEELIELNPERALRALERAVKAKGDPELRELLEEVRELLEEGNPEEAKELLKEAIKLAQP
B23: il2ra_site1_1z92_normal_mot_HHH_b2_00827_000000099_0001_20_37_H_._HHH_eva_0327_af2_0001_0000100007_0000001_0 (protein)
chain: SSEEELEELVEKIREVAEEKGDERLRRALERARFVLRELELGANSERAREIAEEAIKALYKTVVS
B24: il2ra_site1_2b5i_normal_mot_2cbe48e66a1f39b3fed734b245ab0a04_0001_000000015_0001_17_31_H_._HHH_b2_04843_0002_0000200006_0000001_0_af2pred_dldesign_0_af2pred (protein)
chain: SSSSSDPEAEFERLLAELRRAHAAGDDAAVDRLAFEAAFLAYRLKDEERLAEIEALYNALSSSSS
B25: il2ra_site1_2b5i_normal_mot_HHH_b1_05603_000000220_0001_1_17_H_._HHH_b2_02533_0001_0000100006_0000001_0_af2pred_dldesign_0_af2pred (protein)
chain: SSSSSSSRREVLLLANELYQKLEDEEKQDELYDLYTEFLKTRDPALAERIRAAAKELESSSSSSS
B26: il2ra_site2_3nfp_normal_mot_HHH_b1_02297_000000279_0001_41_58_H_._HHH_b2_07606_0001_0000500068_0000001_0_af2pred_0001_af2pred (protein)
chain: SSSSSSDDEELKEELKELLEEGDEEKLKKVVEEAAELAARLGDFELFALALQALKVLQSSSSSSS
B27: il2ra_site1_1z92_sap_20_mot_HHH_b1_07660_af2_000000114_0001_40_57_H_._HHH_b1_06241_0001_0000100001_0000001_0_0001 (protein)
chain: SEEEELEELLRELGVPPEDIEAIKRDFRRTKEFGFPPRDVLQAILNALERFGDPAAEVIEELLKK
B28: il2ra_site1_3nfp_normal_mot_HHH_b2_03322_af2_000000115_0001_43_57_H_._HHH_b1_01335_af2_0001_0000700010_0000001_0_af2pred_dldesign_0_af2pred (protein)
chain: SSSSSSSKAEEYLKKLEELKKEKNFKEFDKLYKEALRYAQENDDAELRAAVSALLREAASSSSSS
B29: il2ra_site1_2b5i_normal_mot_HHH_b1_08745_af2_000000166_0001_39_57_H_._HHH_b1_05027_0001_0000300017_0000001_0_af2pred_0001_af2pred (protein)
chain: SSSSSSEEVRELFEEANRLAREGDEEKAREVLEEAEELAERAGNPSLLRMVRAALRILESSSSSS
B30: il2ra_site1_3nfp_normal_mot_7f2fc9564206058543fe500fefea0e08_0001_000000219_0001_1_13_H_._HHH_b1_07406_af2_0001_0000400026_0000001_0_af2pred_0001_af2pred (protein)
chain: SSSSDKLKKALELAKRIQELLREGDPEEARELLEQLKELAEELNDEAAEILVKRLEKKINSSSSS
B31: il2ra_site1_3nfp_sap_18_mot_1dfc56a8f07a39e834a69883c800ee5d_0001_1_af2_000000099_0001_1_15_H_._HEEHE_0460_0001_0000400002_0000001_0_0001_af2pred_0001_af2pred_1 … (protein)
chain: SSSSSSEESEELLEKLEEALERGDVELALELARRIERLARKNDDQELLEAFWELIRRATSSSSSS
B32: il2ra_site2_2erj_normal_mot_HHH_b1_02713_af2_000000038_0001_1_19_H_._HHH_b2_05421_0001_0000500020_0000001_1 (protein)
chain: SSSSSLEEELIRHALLRAELLIEEGNEREARQVLESAEEYARLVGDEEVLERIQKLLEELSSSSS
B33: il2ra_site1_2b5i_normal_mot_HHH_b1_03148_af2_000000174_0001_43_57_H_._HHH_b2_06886_af2_0001_0000600032_0000001_0_1_af2pred_dldesign_0_af2pred (protein)
chain: SSSSSEKVEELDRLGSEAFRLSIKGKKEEFEKVAAEAIALAKELGSDKWVAELNYLKSKLSSSSS
B34: il2ra_site2_3nfp_sap_27_mot_6ba2120c21ebf0bdaaca7550098e1d96_0001_af2_000000030_0001_16_30_H_._HHH_b2_06425_0001_0000200015_0000001_0_0001 (protein)
chain: SSSSDEEEVEKLLEEARETLEEGDEEKALEILLEAAAVAARARNHELFAEVMAEAYKIVNSSSSS
B35: il2ra_site2_2erj_sap_28_mot_3b06bd03f1c6bceadc68eab912867b79_0001_000000296_0001_36_50_H_._HHH_b2_07081_0001_0000200005_0000001_0_0001 (protein)
chain: SSSDTEELAREAEEEARQLLEEGDPEQAFSLLAEALVRLAELNDEEAEKIVSKVSHEVYQRSSSS
B36: il2ra_site2_3nfp_sap_28_mot_HHH_b1_00050_000000292_0001_22_38_H_._2ddac98514d63a720a07c52076301d76_0001_af2_0001_0000400019_0000001_0_0001 (protein)
chain: SSSSDEEALRQDLLIAAERAKEKASEEEREELEELIRELEREGDPELAEELFALVAEILLSSSSS
B37: il2ra_site2_2erj_sap_22_mot_HHH_b1_04373_af2_000000118_0001_18_33_H_._HHH_b2_04240_af2_0001_0000300025_0000001_0_0001 (protein)
chain: SSSSDAAELLDEAFEEARRLFKNGDPEEAEEVLKKVLEELEELNDPDAVETLRLLIRFLRESSSS

Molecular target: il2ra, P01589
Assay: yeast display titration

Apparent Kd, inactive:
B1 no binding seen, B2 no binding seen, B3 no binding seen, B4 no binding seen, B5 no binding seen, B6 no binding seen, B7 no binding seen, B8 no binding seen, B9 no binding seen, B10 no binding seen, B11 no binding seen, B12 no binding seen, B13 no binding seen, B14 no binding seen, B15 no binding seen, B16 no binding seen, B17 no binding seen, B18 no binding seen, B19 > 3.29 µM, B20 no binding seen, B21 no binding seen, B22 no binding seen, B23 no binding seen, B24 no binding seen, B25 > 0.238 µM, B26 no binding seen, B27 no binding seen, B28 no binding seen, B29 no binding seen, B30 no binding seen, B31 no binding seen, B32 no binding seen, B33 no binding seen, B34 no binding seen, B35 no binding seen, B36 no binding seen, B37 no binding seen
